The values below come from PubChem BioAssay AID493014 (National Center for Advancing Translational Sciences (NCATS), 2011).

The assay is described as follows: qHTS Assay to Find Inhibitors of Chronic Active B-Cell Receptor Signaling. Conditions: ABC-DLBCL IkBa-CBG/CBR reporter, luminescence ratio (green luciferase fused to IkBa over red control in TMD8 lymphoma cells), 4 h. The method in brief:
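Cell line TMD8 (human ABC DLBCL), stably expressing tet-inducible CBG68-IkBa fusion and CBR; IMDM/0.5% FBS; cpd up to 46 uM; dox induction, 4 h, 37C/5% CO2; dual luminescence; green/red ratio; MG132 control.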

The mark [1] stands for this setting: measured here: CBR red luminescence, cell number.

Each structure is given as a SMILES string. The list shows a part of the results. Shown are side measurements of this screen, not its main read-out; they come without a call. Most of these compounds were active or inconclusive in the main read-out, so they are no random draw. Words in brackets tell the shape of the fitted curve; partial curves, single points and poor fits give uncertain potencies.

As for `Cc1ccc(S(=O)(=O)c2nc(S(=O)(=O)c3ccc(C)cc3)c(NCc3ccco3)s2)cc1`, the AC50 under setting [1] is 6.31 µM [rising, partial curve, poor fit].
For `Cc1cccc(C(=O)N/N=C/c2cc(Br)c(Br)o2)c1`, under setting [1], the AC50 is 29.1 µM [falling, single point].
As to `Cc1cccc(N(CC(=O)Nc2ccc(-c3nc4ccc(C)cc4s3)cc2)S(C)(=O)=O)c1`, the AC50 under setting [1] is 10 µM [rising, partial curve, poor fit].
On the same count and under the same terms, as for `CCC(C)NC(=O)CSc1nc2cc3c(cc2c(=O)n1CCCCCC(=O)NCc1ccc(OC)cc1)OCO3` (stereo not drawn), the figure is 0.562 µM [rising, full curve]; as for `Cc1nc2ccccc2nc1N/N=C/c1ccc(O)cc1`, 25.1 µM [falling, single point].
Still for that read-out and setting: as for `Cc1sc2ncn(CCn3cnc4sc(C)c(C)c4c3=O)c(=O)c2c1C`, the figure is 6.51 µM [rising, single point].
Consider `CC1CCCN(CCCOc2ccc(Cl)cc2Br)C1` (stereo not drawn), for which the AC50 under setting [1] is 6.51 µM [rising, single point].
On the same count and under the same terms, as for `COCCCN1CCN(C2Cc3ccccc3Sc3ccc(Cl)cc32)CC1` (stereo not drawn), the figure is 11.6 µM [falling, single point]; as for `CCOCCCNC(=O)C1(O)c2ccccc2NC(=O)N1c1ccc(Cl)cc1` (stereo not drawn), 11.2 µM [rising, partial curve]; as for `COc1ccccc1N1CCN(S(=O)(=O)c2ccc(-c3cnc(C4CC4)o3)cc2)CC1`, 0.794 µM [falling, full curve, poor fit].
On to `CCOC(=O)Oc1ccc2c(=O)c(Oc3cccc(C)c3)coc2c1`, for which the AC50 under setting [1] was 20 µM [falling, single point].
Still for that read-out and setting: then `Cc1ccc2[nH]c3c(=O)n(CCc4cnc[nH]4)cnc3c2c1`, with 0.447 µM [falling, full curve]; and `O=C(COc1ccc(Cl)cc1Cl)N/N=C/c1ccccn1`, with 1.41 µM [rising, single point]; and `COc1ccccc1NC(=O)C1CCN(S(=O)(=O)c2ccc3c(c2)NC(=O)C(C)S3)CC1` (stereo not drawn), with 8.91 µM [falling, partial curve].
The same measure, in the same setting: as for `COc1ccc(N/C=C2\CCc3ccccc3C2=O)cc1`, the figure is 15.8 µM [falling, partial curve]; as for `Cc1ccc(N2CCN(CC(O)COc3cccc4ccccc34)CC2)cc1` (stereo not drawn), 0.891 µM [rising, full curve, poor fit].
As to `O=C(NCCN1CCCCCC1)c1ccc(N2CCCC2=O)cc1`, the AC50 under setting [1] was 20.6 µM [rising, single point].
Consider `COc1cc2c(cc1OC)CN(Cc1cccs1)CC2`, for which the AC50 under setting [1] was 3.26 µM [rising, partial curve, poor fit].
Regarding `O=C(CCS(=O)(=O)c1ccccc1)Nc1nnc(C(F)(F)F)s1`, the AC50 under setting [1] was 35.5 µM [falling, single point].
On to `CCOC(=O)c1c(C)c2c(n1C)CCC/C2=N\O`, for which the half-maximal activity concentration (AC50) under setting [1] was 35.5 µM [rising, single point].
In the case of `Cc1coc2c(C)c3oc(=O)c(CC(=O)N[C@@H](CC(C)C)C(=O)O)c(C)c3cc12`, the AC50 under setting [1] was 11.2 µM [falling, partial curve].
In the case of `CC(C)(O)C#Cc1ccc(CN2CCN(Cc3ccsc3)C(CCO)C2)s1` (stereo not drawn), under setting [1], the AC50 was 5.62 µM [rising, single point].
`Cc1ccc(/C=C/C(=O)c2ccccc2)cc1`: the AC50 under setting [1] was 4.61 µM [falling, full curve, poor fit].
Still for that read-out and setting: as for `COC(=O)c1ccc(CSc2nnc(CS(=O)Cc3ccc(Br)cc3)n2-c2ccccc2)cc1` (stereo not drawn), the figure is 20.6 µM [falling, partial curve, poor fit].
The same measure, in the same setting: then `COC(=O)C1=CN(Cc2cccs2)C=C(C(=O)OC)C1c1cccc(Cl)c1`, with 3.55 µM [falling, partial curve, poor fit].
As for `O=[N+]([O-])c1ccc(/C=N/NC(=S)Nc2ccccc2)o1`, the AC50 under setting [1] was 25.9 µM [rising, single point] and the AC50 (measured here: IkBa-CBG green luminescence) is 29.1 µM [falling, single point].
Turning to `O=C(O)c1ccc(/C=N/NC(=O)c2ccc(NS(=O)(=O)c3cccs3)cc2)cc1`, the AC50 under setting [1] is 3.16 µM [falling, partial curve, poor fit].
For `CN(C)c1ccc(/C=N/n2c(-c3ccccc3Br)n[nH]c2=S)cc1`, under setting [1], the AC50 was 14.1 µM [rising, single point].
Take `COc1ccccc1NC(=O)CNC(c1ccccc1)c1ccccc1`: the AC50 under setting [1] was 11.2 µM [falling, partial curve].
On to `Cc1cc(C)c2nc(NC(=O)C3CC(=O)N(Cc4ccco4)C3)sc2c1` (stereo not drawn), for which, under setting [1], the half-maximal activity concentration (AC50) is 3.16 µM [falling, partial curve, poor fit].
In the case of `COc1ccc(C=NCCCN2CCOCC2)cc1`, the AC50 under setting [1] is 25.9 µM [falling, partial curve, poor fit].
For `Cc1cccc(N2CCN(CC(O)COc3ccccc3Cl)CC2)c1` (stereo not drawn), the AC50 under setting [1] is 12.6 µM [falling, partial curve, poor fit].
For `CCOc1cc(C(c2c(C)[nH][nH]c2=O)c2c(C)[nH][nH]c2=O)cc([N+](=O)[O-])c1O`, the AC50 under setting [1] is 10 µM [falling, partial curve, poor fit].
For `COCCNC(=O)c1ccc2c(c1)C(=O)c1ccccc1-2`, the AC50 under setting [1] is 5.01 µM [rising, full curve].
For the compound `COc1ccc(C(=O)N=c2sc3ccccc3n2C)cc1OC`, the half-maximal activity concentration (AC50) under setting [1] is 3.98 µM [rising, full curve].
As for `CC(C)(C)C(=O)Nc1nc2ccc(S(C)(=O)=O)cc2s1`, under setting [1], the AC50 was 35.5 µM [falling, single point].
Consider `C(=N\Nc1ccccn1)/c1ccc(N2CCOCC2)cc1`, for which the AC50 under setting [1] is 2.82 µM [rising, partial curve].
`Cc1ccc(NC(=O)CSc2nnc(-c3cccs3)n2Cc2ccco2)cc1`: the AC50 under setting [1] was 35.5 µM [falling, single point].
For the compound `COc1ccccc1CNc1ncnc2cc(Cl)ccc12`, the AC50 under setting [1] was 3.55 µM [falling, single point].
Regarding `CCOc1ccc(NC(=O)CN(C)C(=O)CCCOc2ccc(Br)cc2)cc1OCC`, the AC50 under setting [1] is 6.51 µM [falling, single point].
`O=C(/C=C/c1cccc(F)c1)OCC(=O)c1ccc[nH]1`: under setting [1], the AC50 is 0.58 µM [rising, single point].
With `O=C(Nc1ccc2c(c1)OCCO2)c1ccc(Cl)c(Cl)c1`, the AC50 under setting [1] is 15.8 µM [falling, partial curve].
